Reference: the M2OR odorant receptor database
The entries are a selection whose mix differs from that of the whole data set. The calls were merged from several studies; some rest on single wells.

Experiments:
Conditions in all cases: stereoisomer not certain
[1] = target: T1, UniProt Q8VGX8
T1 sequence (whole entry): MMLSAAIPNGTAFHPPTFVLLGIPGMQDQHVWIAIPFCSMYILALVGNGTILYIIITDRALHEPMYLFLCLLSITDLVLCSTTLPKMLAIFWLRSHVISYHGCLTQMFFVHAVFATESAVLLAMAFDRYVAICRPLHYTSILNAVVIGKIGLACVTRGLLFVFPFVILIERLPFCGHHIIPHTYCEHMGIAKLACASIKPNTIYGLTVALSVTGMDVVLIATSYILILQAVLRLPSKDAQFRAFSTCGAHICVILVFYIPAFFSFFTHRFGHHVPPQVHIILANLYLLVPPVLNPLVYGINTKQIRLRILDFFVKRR
In short: (§1)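 Whether a receptor–molecule pair is responsive (active) rests on the original authors' judgment that its measured signal was statistically different from baseline. Pairs without that judgment are non-responsive (inactive). Sources used varied assay methods, commonly transient luciferase assays in mammalian cell lines.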

[2] = target: T2, UniProt Q8VGJ3
T2 sequence (whole entry): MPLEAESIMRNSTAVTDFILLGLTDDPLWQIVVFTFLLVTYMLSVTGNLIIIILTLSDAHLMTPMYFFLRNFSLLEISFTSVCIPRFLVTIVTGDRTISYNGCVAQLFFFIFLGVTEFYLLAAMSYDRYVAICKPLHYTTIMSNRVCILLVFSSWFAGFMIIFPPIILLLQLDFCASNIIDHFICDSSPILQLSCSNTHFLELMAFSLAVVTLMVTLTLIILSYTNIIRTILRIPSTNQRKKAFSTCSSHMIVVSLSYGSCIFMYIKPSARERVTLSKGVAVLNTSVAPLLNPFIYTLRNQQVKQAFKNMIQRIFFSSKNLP
In short: as §1

[3] = target: T3, UniProt Q8VGL0
T3 sequence (whole entry): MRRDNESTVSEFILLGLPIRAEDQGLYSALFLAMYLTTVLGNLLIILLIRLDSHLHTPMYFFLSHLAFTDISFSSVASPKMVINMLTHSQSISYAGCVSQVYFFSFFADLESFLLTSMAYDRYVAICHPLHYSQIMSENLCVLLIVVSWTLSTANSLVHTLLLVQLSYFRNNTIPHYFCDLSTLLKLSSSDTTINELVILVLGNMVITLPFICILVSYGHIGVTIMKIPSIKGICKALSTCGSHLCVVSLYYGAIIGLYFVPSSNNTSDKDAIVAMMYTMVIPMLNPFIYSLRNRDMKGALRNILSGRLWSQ
In short: as §1

[4] = target: T4, UniProt Q8VGU3
T4 sequence (whole entry): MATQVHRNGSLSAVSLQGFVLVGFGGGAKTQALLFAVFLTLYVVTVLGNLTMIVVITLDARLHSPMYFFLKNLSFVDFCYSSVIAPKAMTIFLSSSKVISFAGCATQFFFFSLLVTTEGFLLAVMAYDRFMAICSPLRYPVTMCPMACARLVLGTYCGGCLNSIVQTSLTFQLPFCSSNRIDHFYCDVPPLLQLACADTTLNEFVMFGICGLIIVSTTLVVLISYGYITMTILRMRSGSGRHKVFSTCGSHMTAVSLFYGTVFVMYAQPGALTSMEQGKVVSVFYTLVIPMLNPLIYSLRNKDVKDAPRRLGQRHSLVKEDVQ
In short: as §1

[5] = target: T5, UniProt Q8VGV7
T5 sequence (whole entry): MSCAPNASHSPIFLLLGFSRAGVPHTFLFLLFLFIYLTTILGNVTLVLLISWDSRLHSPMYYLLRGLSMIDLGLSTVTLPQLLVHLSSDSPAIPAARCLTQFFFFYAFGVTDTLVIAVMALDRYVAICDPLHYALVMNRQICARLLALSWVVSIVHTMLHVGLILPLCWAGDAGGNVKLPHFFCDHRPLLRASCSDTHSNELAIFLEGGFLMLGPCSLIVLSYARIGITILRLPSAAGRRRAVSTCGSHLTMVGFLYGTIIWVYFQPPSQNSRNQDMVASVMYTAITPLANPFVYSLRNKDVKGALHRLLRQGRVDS
In short: as §1

[6] = target: T6, UniProt Q8VGX3
T6 sequence (whole entry): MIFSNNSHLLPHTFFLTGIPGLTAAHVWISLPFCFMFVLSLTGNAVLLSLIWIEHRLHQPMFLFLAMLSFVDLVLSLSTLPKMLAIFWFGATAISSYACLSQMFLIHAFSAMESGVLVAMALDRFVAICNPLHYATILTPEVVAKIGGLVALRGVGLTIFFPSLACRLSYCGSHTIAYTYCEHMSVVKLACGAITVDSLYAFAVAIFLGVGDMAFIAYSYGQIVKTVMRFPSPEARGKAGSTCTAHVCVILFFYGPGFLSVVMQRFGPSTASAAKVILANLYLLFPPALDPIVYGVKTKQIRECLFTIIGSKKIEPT
In short: as §1

[7] = target: T7, UniProt Q8VGX5
T7 sequence (whole entry): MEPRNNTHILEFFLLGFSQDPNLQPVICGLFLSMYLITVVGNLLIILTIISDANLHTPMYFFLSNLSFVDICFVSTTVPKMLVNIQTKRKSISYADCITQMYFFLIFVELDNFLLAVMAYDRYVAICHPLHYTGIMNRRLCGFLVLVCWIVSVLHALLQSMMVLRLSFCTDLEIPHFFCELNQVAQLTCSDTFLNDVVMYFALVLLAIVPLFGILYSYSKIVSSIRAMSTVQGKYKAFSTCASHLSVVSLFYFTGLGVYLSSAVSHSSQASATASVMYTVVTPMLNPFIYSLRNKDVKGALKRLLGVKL
In short: as §1

[8] = target: T8, UniProt Q8VGZ2
T8 sequence (whole entry): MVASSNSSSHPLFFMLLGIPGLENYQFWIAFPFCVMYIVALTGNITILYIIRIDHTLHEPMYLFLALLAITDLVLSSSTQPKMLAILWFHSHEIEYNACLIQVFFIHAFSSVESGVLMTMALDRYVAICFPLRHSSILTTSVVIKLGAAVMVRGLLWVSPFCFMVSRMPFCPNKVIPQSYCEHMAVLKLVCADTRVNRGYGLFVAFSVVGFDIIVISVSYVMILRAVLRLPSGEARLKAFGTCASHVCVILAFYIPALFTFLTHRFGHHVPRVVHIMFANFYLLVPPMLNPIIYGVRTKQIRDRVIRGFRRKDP
In short: as §1

Measured: odorant receptor agonist call;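 note: active if original authors judged signal statistically different from baseline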

CCCC(=O)O
inactive: [1]

COc1ccccc1O
not listed: [1]
inactive: all other assays above
